Measured values: paper PMC12459184, “Design, synthesis, and bioevaluation of pyrazole-containing tubulin polymerisation inhibitors based on conformational constraint strategy” (Journal of Enzyme Inhibition and Medicinal Chemistry, 2025)

Columns and labels:
Format in all cases: cell-based
[1] = system: human umbilical vein endothelial cells (HUVEC); assay: MTT toxicity assay, normal cells HUVEC; settings: 72 h, read-out: IC50 (μM) ± SD HUVEC
Method: (§1) The toxicity of compounds 4k and 5a was also tested by using human umbilical vein endothelial cells (HUVEC) and human liver cells (L02).
(§2) Cells grown in logarithmic phase were harvested and seeded onto 96-well cell plates at a density of 4 ∼ 5 × 10^3 cells per well (various from cell type) and were cultured for 24 h. Different concentrations of compounds were added into the wells, and the cells were cultured for another 72 h. The medium was removed, then 20 μL of MTT (5 mg/mL in PBS) was added to each well and the cells were incubated for 4 h. 150 μL of DMSO was added to each well to dissolve the formazan, and the absorbance at 490 nm of each well was measured by a microplate reader. IC50 values were calculated by SPSS software.

HCT-116 cells = assay: MTT antiproliferative assay, HCT-116; settings: Homo sapiens, 72 h drug exposure, read-out: IC50 (μM) ± SD HCT-116
Method: (§3) Additional cell lines including human colon cancer cell line HCT-116, human non-small cell lung cancer cell line A549, and human prostate cancer cell line PC-3 were brought to test the antiproliferative activities of potent compounds 4k and 5a.
(§4) All cell lines tested in this study were purchased from the American Type Culture Collection (ATCC, Manassas, VA). SGC-7901 (human gastric adenocarcinoma), HCT-116 (human colon carcinoma), and A549 (human pulmonary carcinoma) cells were cultured in RPMI-1640 medium containing 10% foetal serum (FBS) and 1% penicillin-streptomycin solution (100×). MCF-7 (human breast carcinoma) cells were cultured in DMEM medium containing 10% foetal serum (FBS) and 1% penicillin-streptomycin solution (100×). PC-3 (human prostate carcinoma) cells were cultured in Ham’s F-12K medium containing 10% foetal serum (FBS) and 1% penicillin-streptomycin solution (100×). All cells were cultured at 37 °C in a humidified atmosphere containing 5% CO2.
(§5) Cells grown in logarithmic phase were harvested and seeded onto 96-well cell plates at a density of 4 ∼ 5 × 10^3 cells per well (various from cell type) and were cultured for 24 h. […] 150 μL of DMSO was added to each well to dissolve the formazan, and the absorbance at 490 nm of each well was measured by a microplate reader. IC50 values were calculated by SPSS software.

A549 cells = assay: MTT antiproliferative assay, A549; settings: Homo sapiens, 72 h drug exposure, read-out: IC50 (μM) ± SD A549
Method: as §3, §4, §5

SGC-7901 cells = assay: MTT antiproliferative assay, SGC-7901; settings: Homo sapiens, SGC-7901, 72 h, read-out: IC50 (μM) ± SD SGC-7901
Method: (§6) The in vitro antiproliferative activities of all target compounds 4a−k, 5a−h, and 6a−h were assayed by MTT method using human gastric cancer cell line SGC-7901 and human breast cancer cell line MCF-7. Colchicine was used as the positive control.
as §4, §5

MCF-7 cells = assay: MTT antiproliferative assay, MCF-7; settings: Homo sapiens, MCF7, 72 h, read-out: IC50 (μM) ± SD MCF-7
Method: as §6, §4, §5

PC-3 cells = assay: MTT antiproliferative assay, PC-3; settings: Homo sapiens, 72 h drug exposure, read-out: IC50 (μM) ± SD PC-3
Method: as §3, §4, §5

human liver cells (L02) = assay: MTT toxicity assay, normal cells L02; settings: 72 h, read-out: IC50 (μM) ± SD L02
Method: as §1, §2

For `COc1cc2c(c(OC)c1OC)-c1ccc(OC)c(=O)cc1[C@@H](NC(C)=O)CC2` [Colchicine, reference compound], the IC50 [1] was 0.21 ± 0.078 µM, the IC50 (HCT-116 cells) was 0.039 ± 0.008 µM and the IC50 (A549 cells) was 0.043 ± 0.015 µM. For the same molecule, the IC50 (SGC-7901 cells) was 0.031 ± 0.006 µM, the IC50 (MCF-7 cells) was 0.043 ± 0.016 µM and the IC50 (PC-3 cells) was 0.015 ± 0.003 µM. The IC50 (human liver cells (L02)) was 0.012 ± 0.003 µM.
